Values from PubChem BioAssay AID720505 (Drosophila RNAi Screening Center, 2013).
The deposit covers about 20,000 reagents; this is an unselected part of those that have a named target and a result. In the full data, about 2,100 (10%) were called active. 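Raw plate signals without normalisation; calls rest on control-based scores that were not deposited; replicate 2 separates called from uncalled poorly.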 Unmarked entries are inactive. The numbers tell different reagents against one gene apart. Names joined by + are all predicted targets of the reagent. The record does not give: the amount of reagent, the time to read-out.

Purpose: 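Knock-downs that reduce calcium influx once internal stores are emptied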 (primary screen)
System: Drosophila S2R+ cells
Reagent: long dsRNA against Drosophila genes
Conditions: thapsigargin (2 µM) in calcium-free buffer to empty internal stores, then 2 mM calcium added back
Measurement: 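Stores emptied by 2 µM thapsigargin without calcium, then 2 mM calcium re-added; fluo-4 fluorescence followed by FLIPR in 384-well plates, per-well averaged endpoint, raw; two screen passes, some wells retested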
Reading the numbers: calcium signal and retest calcium signal: higher = more calcium entry after store depletion
Call rule: 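About 1500 genes called as lowering calcium entry, by varying amounts, judged against per-plate control wells with STIM1 as positive and Rho1 as negative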
Meaning of the calls: active = called as lowering calcium entry; inactive = not called

no.	Gene	reagent	calcium signal, replicate 1	calcium signal, replicate 2	retest calcium signal, replicate 1	retest calcium signal, replicate 2
1	Mvd (Mevalonate diphosphate decarboxylase)	1	108	121		
2	CG7824	1	190	148		
3	CR17438 (pseudo)	1	85.4	113		
4	snRNP-U1-70K (small ribonucleoprotein particle U1 subunit 70K)	1	152	93.3	91.8	79.5
5	snRNP-U1-70K (small ribonucleoprotein particle U1 subunit 70K)	2	73.2	252		
6	Papss (PAPS synthetase)	1	150	119		
7	Lsm10	1	146	152		
8	CG13245	1	105	88.9		
9	CG11883	1	139	127		
10	CG18294 + 825-Oak + CG32214 + 2 more	1	98.8	262		
11	Fatp3 (Fatty acid transport protein 3)	1	92.5	187		
12	CG34324	1	116	96.3		
13	CG34324	2	125	164		
14	cpb (capping protein beta)	1	135	246		
15	CG14655	1	109	171		
16	CG9265	1	72.3	143		
17	CG9265	2	176	84.3		
18	CG13539	1	83.5	135		
19	CG34428	1	103	127		
20	lectin-21Cb	1	90.8	130		

Records listed so far whose gene name begins with S or s (2):
Gene	reagent	calcium signal, replicate 1	calcium signal, replicate 2	retest calcium signal, replicate 1	retest calcium signal, replicate 2
snRNP-U1-70K (small ribonucleoprotein particle U1 subunit 70K)	1	152	93.3	91.8	79.5
snRNP-U1-70K (small ribonucleoprotein particle U1 subunit 70K)	2	73.2	252		

Further entries follow:
no.	Gene	reagent	calcium signal, replicate 1	calcium signal, replicate 2	retest calcium signal, replicate 1	retest calcium signal, replicate 2
21	CG13313	1	89.9	80.3		
22	Hsdl2 (Hydroxysteroid dehydrogenase like 2)	1	113	126		
23	Snx16 (Sorting nexin 16)	1	129	142		
24	ABCB7 (ATP binding cassette subfamily B member 7)	1	112	90.5		
25	ND4 (retired record)	1	75.7 (active)	107		
26	TrissinR (Trissin receptor)	1	230	149		
27	TrissinR (Trissin receptor)	2	194	94.7		
28	TrissinR (Trissin receptor)	3	125	138		
29	CG33757	1	138	94.7		
30	CG9500	1	69.9 (active)	184		
31	Or98P (Odorant receptor 98a pseudogene)	1	115	129		
32	PGRP-SB1 (Peptidoglycan recognition protein SB1)	1	78	179		
33	CG14182	1	104	140		
34	CG15577	1	235	117		
